Measured values as given in publication PMC12644692.
Results are given in words; binding and its absence hold for the method and conditions named. Binding seen in cells or lysates may run through a third protein. Some binding calls cover weakened binding; strength is not graded here.

The chains behind the UniProt entries cited, without tags or fusion partners.
UniProt P16110: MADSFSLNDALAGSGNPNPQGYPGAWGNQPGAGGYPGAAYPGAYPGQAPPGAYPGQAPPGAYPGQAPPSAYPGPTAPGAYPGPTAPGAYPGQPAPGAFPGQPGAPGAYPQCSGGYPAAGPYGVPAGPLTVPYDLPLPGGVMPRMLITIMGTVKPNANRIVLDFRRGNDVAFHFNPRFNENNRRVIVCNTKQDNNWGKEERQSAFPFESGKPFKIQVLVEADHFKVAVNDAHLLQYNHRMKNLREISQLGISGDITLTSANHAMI

Target: T1, CD146 of mouse whole kidney tissue lysate (mouse (endogenous in mouse kidney)) (UniProt Q8R2Y2)
T1 sequence: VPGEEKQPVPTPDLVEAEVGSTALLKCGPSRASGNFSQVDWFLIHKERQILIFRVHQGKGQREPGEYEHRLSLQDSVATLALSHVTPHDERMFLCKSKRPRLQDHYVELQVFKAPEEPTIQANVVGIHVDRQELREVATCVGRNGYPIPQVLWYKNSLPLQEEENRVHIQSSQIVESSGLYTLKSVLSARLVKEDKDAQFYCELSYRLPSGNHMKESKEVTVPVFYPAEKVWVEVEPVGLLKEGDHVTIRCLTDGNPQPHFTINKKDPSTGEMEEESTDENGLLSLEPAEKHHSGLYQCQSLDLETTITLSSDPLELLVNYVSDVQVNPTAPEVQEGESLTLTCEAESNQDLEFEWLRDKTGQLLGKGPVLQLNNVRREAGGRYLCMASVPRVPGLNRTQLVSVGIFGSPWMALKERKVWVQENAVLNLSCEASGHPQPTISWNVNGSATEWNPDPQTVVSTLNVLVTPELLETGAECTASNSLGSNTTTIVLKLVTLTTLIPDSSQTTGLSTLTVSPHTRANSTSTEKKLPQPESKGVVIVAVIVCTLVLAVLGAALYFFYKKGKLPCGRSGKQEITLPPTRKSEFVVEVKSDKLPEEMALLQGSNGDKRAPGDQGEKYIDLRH
Assay: co-IP; combination of whole kidney tissue lysate and plasma from WT mice or CD146-/- mice; immunoprecipitation of Gal3 or of CD146, blots for Gal3 and CD146

In the case of “Galectin-3 of mouse plasma (from UniProt P16110 1-264)”, the binding is reported as “binds”.
